Structures can show the parent of a compound that is named as a salt. The list shows a part of the results. The numbers are fractions of the control, whatever unit the source prints. Most entries show no effect beyond the scatter of the controls.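 MIN6 is a mouse insulinoma beta-cell line that stably carries a lentiviral reporter in which the Pdx1 and Ins1 promoters each drive a nucleus-targeted fluorescent protein; cells were counted by automated imaging with a Hoechst nuclear stain. In the screen, a drug was a possible hit when its Ins1 promoter readout lay beyond two median absolute deviations from the DMSO controls while Pdx1 activity stayed near normal.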
tested on: MIN6; assay: % Pdx1+ Ins1-low (RFP-only, immature) cells relative to DMSO control (fold of DMSO control); higher = more immature Pdx1+/Ins1-low cells; conditions: 8.5 µM; 48 h; glucose 5 mM

SMILES	% Pdx1+ Ins1-low
COc1ccc2cc(CCC(C)=O)ccc2c1 [Nabumetone]	0.577
C#CCN(C)Cc1ccccc1 [Pargyline hydrochloride]	0.532
OCCN1CCN(CCCN2c3ccccc3Sc3ccc(Cl)cc32)CC1 [Perphenazine]	0.701
OC[C@H]1O[C@@H](Oc2ccc(O)cc2)[C@H](O)[C@@H](O)[C@@H]1O [Arbutin]	1.19
Nc1ccc(S(=O)(=O)c2ccc(N)cc2)cc1 [Dapsone]	0.582
COc1ccc(NS(=O)(=O)c2ccc(N)cc2)nn1 [Sulfamethoxypyridazine]	1.22
Nc1ccc(C(=O)NCC(=O)O)cc1 [Aminohippuric acid]	0.68
Cn1nnnc1SCC1=C(C(=O)O)N2C(=O)[C@@H](NC(=O)[C@H](O)c3ccccc3)[C@H]2SC1 [Cefamandole sodium salt]	0.85
N=C(N)NCC1COC2(CCCCC2)O1 (stereo unspecified) [Guanadrel sulfate]	1.15
CC1(C)OC(=O)NC1=O [Dimethadione]	0.6
CCCC(=O)Nc1ncnc2c1ncn2[C@@H]1O[C@@H]2COP(=O)(O)O[C@H]2[C@H]1OC(=O)CCC [Bucladesine sodium salt]	0.618
NC(=O)N/N=C/c1ccc([N+](=O)[O-])o1 [Nitrofural]	0.97
CN1CCCCC1CCN1c2ccccc2Sc2ccc([S+](C)[O-])cc21 (stereo unspecified) [Mesoridazine besylate]	0.518
CO[C@@H]1[C@@H](OC(N)=O)[C@@H](O)[C@H](Oc2ccc3c(O)c(NC(=O)c4ccc(O)c(CC=C(C)C)c4)c(=O)oc3c2C)OC1(C)C [Novobiocin sodium salt]	0.466
CCN1CCN(C(=O)N[C@@H](C(=O)N[C@@H]2C(=O)N3[C@@H]2SC(C)(C)[C@@H]3C(=O)O)c2ccccc2)C(=O)C1=O [Piperacillin sodium salt]	0.737
NNc1nncc2ccccc12 [Hydralazine hydrochloride]	0.732
C[C@H](CCC(=O)O)[C@H]1CC[C@H]2[C@@H]3[C@H](O)C[C@@H]4C[C@H](O)CC[C@]4(C)[C@H]3CC[C@]12C [Chenodiol]	0.741
Nc1cc(C(Cl)=C(Cl)Cl)c(S(N)(=O)=O)cc1S(N)(=O)=O [Clorsulon]	0.785

SMILES	% Pdx1+ Ins1-low
COc1c2occc2c(OC)c2c(=O)cc(C)oc12 [Khellin]	0.718
O=c1oc2ccccc2c(O)c1Cc1c(O)c2ccccc2oc1=O [Dicumarol]	1.46
CN1CCN(CCCN2c3ccccc3Sc3ccc(Cl)cc32)CC1 [Prochlorperazine dimaleate]	1.24
CNCC(O)c1ccc(OC(=O)C(C)(C)C)c(OC(=O)C(C)(C)C)c1 (stereo unspecified) [Dipivefrin hydrochloride]	0.848
CCN(CC)CCc1nc(-c2ccccc2)no1 [Oxalamine citrate salt]	0.903
CC(=O)NC1[C@@H](O)OC(CO)[C@@H](O)[C@H]1O[C@H](C)C(=O)O (stereo in doubt) [Muramic acid, N-acetyl]	1.17
CC(C)NC[C@@H](O)COc1cccc2ccccc12 [(R)-Propranolol hydrochloride]	0.967
CC[C@]12CCCN3CCc4c(n(c5ccccc45)[C@](O)(C(=O)OC)C1)[C@@H]32 [Epivincamine]	1.4
CC(NCCC(c1ccccc1)c1ccccc1)c1ccccc1 (stereo unspecified) [Fendiline hydrochloride]	0.589
CN(C)[C@@H]1C(O)=C(C(=O)NCN2CCCC2)C(=O)[C@@]2(O)C(O)=C3C(=O)c4c(O)cccc4[C@@](C)(O)[C@H]3C[C@@H]12 [Rolitetracycline]	0.767
Cc1c(N(C)CS(=O)(=O)O)c(=O)n(-c2ccccc2)n1C [Dipyrone]	1.05
CC(C)NCC(O)c1ccc2ccccc2c1 (stereo unspecified) [Pronethalol hydrochloride]	0.602
CN(C)c1nc(N(C)C)nc(N(C)C)n1 [Altretamine]	0.983
Nc1nc2n[nH]nc2c(=O)[nH]1 [Azaguanine-8]	0.961
COc1cc([C@@H]2c3cc4c(cc3[C@@H](O[C@@H]3O[C@@H]5CO[C@@H](C)O[C@H]5[C@H](O)[C@H]3O)[C@H]3COC(=O)[C@H]23)OCO4)cc(OC)c1O [Etoposide]	0.989
CCCNCC(O)COc1ccccc1C(=O)CCc1ccccc1 (stereo unspecified) [Propafenone hydrochloride]	0.64
C[C@H]1C[C@@H]2[C@H]([C@@H](O)C[C@@]3(C)[C@H]2CC[C@]3(O)C(=O)CO)[C@@]2(C)C=CC(=O)C=C12 [Methylprednisolone, 6-alpha]	1.14
CN1CC[C@]23c4ccccc4N[C@H]1[C@]21CCN(C)[C@H]3Nc2ccccc21 [Calycanthine]	0.987

From the supplement of paper PMC4807443
